From PubChem BioAssay (NCATS)
The inconclusive results got no clear call from the source; some entries with a clear call stand among them for comparison. Where the call is inconclusive, the potency comes from a doubtful curve fit. Calls of active or inactive are those of the source. Calls follow the shape of the dose curve; as a rule, active = well fitted curve in the direction sought with a large enough effect; inconclusive = small, poorly fitted or top-dose-only effect, or another doubt; inactive = no such curve, though single readings can be large; an effect the other way counts as inactive or inconclusive.

Amino acid sequences for entries named in this document (tags omitted). A change or cut given only in a name is not applied to a line headed by its entry.
UniProt Q8NER1, whole entry, looked up: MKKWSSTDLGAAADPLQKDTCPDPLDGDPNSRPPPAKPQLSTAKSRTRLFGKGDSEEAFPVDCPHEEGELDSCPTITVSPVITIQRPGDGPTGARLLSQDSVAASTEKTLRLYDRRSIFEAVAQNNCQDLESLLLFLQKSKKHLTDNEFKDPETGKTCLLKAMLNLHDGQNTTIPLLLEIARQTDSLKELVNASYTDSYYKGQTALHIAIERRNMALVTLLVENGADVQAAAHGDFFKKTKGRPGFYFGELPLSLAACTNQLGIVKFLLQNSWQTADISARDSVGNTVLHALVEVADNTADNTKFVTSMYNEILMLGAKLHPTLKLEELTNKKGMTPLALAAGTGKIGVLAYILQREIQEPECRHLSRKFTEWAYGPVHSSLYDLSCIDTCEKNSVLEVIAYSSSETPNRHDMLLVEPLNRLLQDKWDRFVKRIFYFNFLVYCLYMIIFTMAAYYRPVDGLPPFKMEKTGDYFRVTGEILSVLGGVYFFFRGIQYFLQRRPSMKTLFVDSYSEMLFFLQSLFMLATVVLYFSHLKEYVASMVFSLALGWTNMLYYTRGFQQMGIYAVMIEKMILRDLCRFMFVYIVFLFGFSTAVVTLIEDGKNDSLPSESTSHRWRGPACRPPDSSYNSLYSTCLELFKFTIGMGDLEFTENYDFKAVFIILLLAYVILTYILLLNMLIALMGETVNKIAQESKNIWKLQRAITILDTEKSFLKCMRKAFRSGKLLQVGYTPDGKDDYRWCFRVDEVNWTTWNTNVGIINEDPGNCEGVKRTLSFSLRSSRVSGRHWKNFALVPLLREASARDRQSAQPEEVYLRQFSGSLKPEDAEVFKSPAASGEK
UniProt P21728, whole entry, looked up: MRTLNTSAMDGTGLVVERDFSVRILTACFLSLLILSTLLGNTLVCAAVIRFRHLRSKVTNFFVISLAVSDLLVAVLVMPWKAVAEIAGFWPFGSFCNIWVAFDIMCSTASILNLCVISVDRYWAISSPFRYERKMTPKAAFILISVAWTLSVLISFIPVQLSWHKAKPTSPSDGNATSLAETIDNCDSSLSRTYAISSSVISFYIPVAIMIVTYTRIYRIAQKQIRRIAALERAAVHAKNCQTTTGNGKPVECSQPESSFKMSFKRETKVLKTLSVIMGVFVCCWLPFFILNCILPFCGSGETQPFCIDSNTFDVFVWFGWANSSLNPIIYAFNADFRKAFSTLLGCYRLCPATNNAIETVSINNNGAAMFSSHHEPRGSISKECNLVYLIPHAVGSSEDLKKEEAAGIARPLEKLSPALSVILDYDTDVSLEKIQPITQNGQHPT
UniProt O15648: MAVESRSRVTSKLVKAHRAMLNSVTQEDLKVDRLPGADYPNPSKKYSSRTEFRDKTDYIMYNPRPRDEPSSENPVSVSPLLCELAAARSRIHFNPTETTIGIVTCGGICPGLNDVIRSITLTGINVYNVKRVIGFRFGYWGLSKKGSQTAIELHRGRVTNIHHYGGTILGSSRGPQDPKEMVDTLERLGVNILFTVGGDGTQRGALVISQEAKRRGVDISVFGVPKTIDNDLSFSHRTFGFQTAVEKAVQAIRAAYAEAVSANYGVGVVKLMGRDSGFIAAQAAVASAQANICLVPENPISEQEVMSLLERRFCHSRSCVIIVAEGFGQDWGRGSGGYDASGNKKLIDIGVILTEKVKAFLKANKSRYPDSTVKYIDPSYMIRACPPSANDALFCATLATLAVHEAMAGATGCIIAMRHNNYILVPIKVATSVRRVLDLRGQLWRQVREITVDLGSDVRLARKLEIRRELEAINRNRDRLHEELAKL

Target: Transient receptor potential cation channel subfamily V member 1 (Homo sapiens) (UniProt Q8NER1)
Assay: HTS Assay for Compounds that Act as Enhancers of the Vanilloid Receptor 1 (AID 488979)
Settings: TRPV1-expressing cells, enhancer of channel activity, stimulated with capsaicin at EC20; series mostly up to 41.7 µM
Outline: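 Calcium influx kinetics via Fluo-8 (480/520 nm) in TRPV1-expressing cells, 2000/well cultured overnight at 35.5C. Compound-alone read 3 min (agonist phase), followed by EC20 capsaicin challenge for 2 min (enhancer phase).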

Compound	Potency
CN(C)CCCC1(c2ccc(F)cc2)OCc2cc(C#N)ccc21 (configuration not stated)	inconclusive: 12.6 µM [activator, single point]
CN(C)CCC=C1c2ccccc2C=Cc2ccccc21	inconclusive: 22.4 µM [activator, single point]
COc1ccc2c(c1)c(CC(=O)O)c(C)n2C(=O)c1ccc(Cl)cc1	inactive
NS(=O)(=O)c1cc2c(cc1Cl)NC=NS2(=O)=O	inactive
COc1nc(C)nc(Cl)c1NC1=NCCN1	inactive

Target: D(1A) dopamine receptor (Homo sapiens) (UniProt P21728)
Assay: HTS Assay for Allosteric Agonists of the Human D1 Dopamine Receptor: Primary Screen for Antagonists (AID 488983);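 also: calcium flux response to an EC80 dopamine challenge measured with no-wash dye; nearly all actives have a fitted effect of over 65% in size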; also: potency is read from the fitted curve at half-maximal effect
Settings: D1 receptor cell assay, antagonist mode, qHTS titration; series mostly up to 41.8 µM
Outline: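 Tetracycline-induced HEK293 T-REx D1 line, force-coupled to calcium flux, read with no-wash calcium dye. Compound added after 10 s baseline, read 180 s for agonism, then EC80 dopamine added and read a further 180 s.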

Compound	Potency
CC(C)(Sc1ccc(CCN(CCCCC2CCCCC2)C(=O)NC2CCCCC2)cc1)C(=O)O	inconclusive: 11.2 µM [inhibitor, single point]
CCN1CCCC1CNC(=O)c1cc(S(N)(=O)=O)ccc1OC (configuration not stated)	inconclusive: 14.1 µM [inhibitor, partial curve]
C1COC(NC(C2CC2)C2CC2)=N1	inactive
COc1cc2nc(N3CCN(C(=O)C4COc5ccccc5O4)CC3)nc(N)c2cc1OC (configuration not stated)	inconclusive: 15.8 µM [inhibitor, partial curve, poor fit]

Target: ATP-dependent 6-phosphofructokinase (Trypanosoma brucei brucei) (UniProt O15648)
Assay: qHTS Assay to Find Inhibitors of T. brucei phosphofructokinase: hit validation (AID 492961); also: potency is read from the fitted curve at half-maximal effect
Settings: T. brucei PFK, ADP-Glo luminescence; series mostly up to 24.3 µM
Outline: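 ADP-Glo luminescence read-out of ADP formed by 1.25 nM PFK from 0.1 mM ATP and 0.5 mM F6P (TEA pH 8.0, 45 min, RT). Compounds titrated; activity normalized to no-enzyme and full-enzyme controls.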

Compound	Potency
COc1ccc(-c2ccc3cc(C(=O)O)ccc3c2)cc1C12CC3CC(CC(C3)C1)C2	active: 15.8 µM
NS(=O)(=O)c1cc(Cl)c(Cl)c(S(N)(=O)=O)c1	inactive
CNC(=O)c1cc(Oc2ccc(NC(=O)Nc3ccc(Cl)c(C(F)(F)F)c3)cc2)ccn1	inconclusive: 35.5 µM [falling, partial curve, poor fit]
O=S(=O)(O)CCS	inconclusive: 28.2 µM [activator, partial curve]
COc1nc(N)nc2c1ncn2[C@@H]1O[C@H](CO)[C@@H](O)[C@@H]1O	inconclusive: 22.4 µM [falling, partial curve, poor fit]
C=C1c2cccc(O)c2C(O)=C2C(=O)[C@@]3(O)C(O)=C(C(N)=O)C(=O)[C@@H](N(C)C)[C@@H]3[C@@H](O)[C@H]12	inconclusive: 0.757 µM [falling, full curve]

A run of entries of the results above, for reference:
Compound	Potency
CNC(=O)c1cc(Oc2ccc(NC(=O)Nc3ccc(Cl)c(C(F)(F)F)c3)cc2)ccn1	inconclusive: 35.5 µM [falling, partial curve, poor fit]
O=S(=O)(O)CCS	inconclusive: 28.2 µM [activator, partial curve]
COc1nc(N)nc2c1ncn2[C@@H]1O[C@H](CO)[C@@H](O)[C@@H]1O	inconclusive: 22.4 µM [falling, partial curve, poor fit]

System: not listed separately
Assay: Validation screen for small molecules that induce genotoxicity in human embryonic kidney (HEK293T) cells expressing luciferase-tagged ELG1 (AID 493106); also: potency is read from the fitted curve at half-maximal effect
Settings: luminescence; series mostly up to 46.1 µM
Outline: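 HEK293T cells expressing luciferase-tagged ELG1, 2,000 cells/well, exposed to compound 16 hr at 37 °C, 5% CO2. Luciferase read after ONE-Glo, 30 min at room temperature; increased signal indicates genetic stress.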

Compound	Potency
CCOC(=O)C(C)Oc1cccc2c(=O)n(CC(=O)Nc3ccc4c(c3)OCCO4)ccc12 (configuration not stated)	inconclusive: 23.1 µM [activator, partial curve, poor fit]
CC(C)(Sc1ccc(CCN(CCCCC2CCCCC2)C(=O)NC2CCCCC2)cc1)C(=O)O	inactive
COc1cc2c(cc1OC)C1CC(=O)C(CC(C)C)CN1CC2 (configuration not stated)	inconclusive: 20.6 µM [activator, partial curve, poor fit]
C=CCc1cccc(C=NNC(=O)CN2CCN(Cc3ccccc3)CC2)c1O	inconclusive: 6.51 µM [activator, partial curve]
C[C@H]1O[C@@H](n2cc(F)c(=O)[nH]c2=O)[C@H](O)[C@H]1O	inconclusive: 29.1 µM [activator, partial curve, poor fit]
COc1ccc(Cc2nccc3cc(OC)c(OC)cc23)cc1OC	inactive
COc1nc(C)nc(Cl)c1NC1=NCCN1	inactive
